# Measured values published in paper PMC6923398.
# Protein sequences, listed by entry. Tags and fused reporters are not part of them.
# UniProt Q9QWV9: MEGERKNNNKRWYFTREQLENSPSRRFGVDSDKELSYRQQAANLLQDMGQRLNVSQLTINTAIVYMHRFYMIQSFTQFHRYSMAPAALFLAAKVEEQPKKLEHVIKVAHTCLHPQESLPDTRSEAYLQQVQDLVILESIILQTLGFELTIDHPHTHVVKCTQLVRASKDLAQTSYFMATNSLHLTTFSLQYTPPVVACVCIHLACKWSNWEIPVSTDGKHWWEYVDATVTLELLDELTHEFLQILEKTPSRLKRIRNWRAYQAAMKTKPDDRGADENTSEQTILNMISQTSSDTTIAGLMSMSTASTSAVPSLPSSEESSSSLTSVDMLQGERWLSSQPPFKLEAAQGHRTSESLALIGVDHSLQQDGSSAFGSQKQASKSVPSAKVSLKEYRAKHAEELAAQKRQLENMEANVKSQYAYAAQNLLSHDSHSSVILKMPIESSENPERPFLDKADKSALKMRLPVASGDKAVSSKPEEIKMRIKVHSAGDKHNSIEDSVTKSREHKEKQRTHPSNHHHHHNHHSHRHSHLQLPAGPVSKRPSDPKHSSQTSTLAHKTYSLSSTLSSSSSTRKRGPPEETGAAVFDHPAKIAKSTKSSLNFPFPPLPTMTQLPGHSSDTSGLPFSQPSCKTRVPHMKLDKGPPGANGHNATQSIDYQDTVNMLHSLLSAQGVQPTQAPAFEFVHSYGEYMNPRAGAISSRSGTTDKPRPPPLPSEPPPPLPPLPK
# UniProt Q99J95: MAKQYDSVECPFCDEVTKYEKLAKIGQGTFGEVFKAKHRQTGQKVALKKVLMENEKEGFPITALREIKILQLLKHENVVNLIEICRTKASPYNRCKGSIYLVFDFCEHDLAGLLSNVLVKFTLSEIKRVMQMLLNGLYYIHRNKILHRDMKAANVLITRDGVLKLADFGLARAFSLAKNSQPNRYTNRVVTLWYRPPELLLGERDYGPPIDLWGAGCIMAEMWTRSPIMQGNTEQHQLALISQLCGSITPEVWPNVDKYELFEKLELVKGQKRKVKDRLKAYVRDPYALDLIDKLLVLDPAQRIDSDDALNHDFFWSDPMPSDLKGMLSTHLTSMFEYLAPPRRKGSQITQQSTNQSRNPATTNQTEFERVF
# Results are given in words; binding and its absence hold for the method and conditions named. Binding seen in cells or lysates may run through a third protein. Some binding calls cover weakened binding; strength is not graded here.
# Biological target: T1, heterogeneous nuclear ribonucleoprotein L (mouse (endogenous in C2C12)) (UniProt Q8R081)
# T1 sequence: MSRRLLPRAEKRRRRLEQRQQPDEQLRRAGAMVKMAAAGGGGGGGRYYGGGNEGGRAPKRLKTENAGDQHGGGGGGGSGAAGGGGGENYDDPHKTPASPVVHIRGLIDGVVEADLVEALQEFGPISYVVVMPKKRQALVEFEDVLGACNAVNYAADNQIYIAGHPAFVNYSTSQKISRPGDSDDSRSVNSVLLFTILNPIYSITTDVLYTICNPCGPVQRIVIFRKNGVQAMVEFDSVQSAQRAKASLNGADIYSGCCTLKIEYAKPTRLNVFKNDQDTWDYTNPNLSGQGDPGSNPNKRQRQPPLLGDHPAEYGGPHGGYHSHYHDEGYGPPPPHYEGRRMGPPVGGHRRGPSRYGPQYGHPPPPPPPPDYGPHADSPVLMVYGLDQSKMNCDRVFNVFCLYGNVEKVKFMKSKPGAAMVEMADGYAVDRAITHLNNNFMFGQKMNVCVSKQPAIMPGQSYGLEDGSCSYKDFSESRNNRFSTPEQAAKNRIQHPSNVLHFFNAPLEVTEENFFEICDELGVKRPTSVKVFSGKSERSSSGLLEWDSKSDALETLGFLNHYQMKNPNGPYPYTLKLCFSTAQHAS
# Experiment: co-IP; nuclear lysates of C2C12 cells (DM D2), digested with DNase I; IP with antibodies against hnRNPL or CCNT1 (IgG control) overnight at 4 °C, Protein-G magnetic beads; washes in 20 mM HEPES pH 7.9, 0.2 M NaCl, 0.3% NP-40; western blot; also done in seRNA-1 knockdown cells (binding not affected)
row,binding,Substance
1,binds,CCNT1 (from UniProt Q9QWV9 1-724)
2,binds,CDK9 (from UniProt Q99J95 1-372)
